Assay results published in the supplement of paper PMC11732987, “Enantioselective OTUD7B fragment discovery through chemoproteomics screening and high-throughput optimisation” (Communications Chemistry, 2025).
The list shows a part of the results. The data scatter; read single values as rough.

Compound: ClCC(=O)N[C@H]1CCCc2ccccc12
Assay: log2 mean competition ratio of IA-DTB cysteine labelling (DMSO/compound) (log2 ratio); higher = stronger cysteine engagement by compound
Conditions: 200 µM; treatment time: 4 h; cell line lysate: HEK293T
Method: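 IA-DTB competitive cysteine chemoproteomics in HEK293T RIPA lysate. Lysates were treated with compound 29 or 30 at 50 or 200 µM for 4 h, then IA-DTB (500 µM, 1 h), trypsin-digested, NeutrAvidin-enriched and analysed by diaPASEF. Competition ratio = intensity DMSO / intensity compound (n=4 treated, n=64 DMSO); binding: mean log2 CR ≥ 1 and p ≤ 0.05 plus QC filters. Target is the cysteine site.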

Row | Target | log2 mean competition ratio
1 | NOP56 C472 (UniProt O00567) | -0.321
2 | NBAS C406 (UniProt A2RRP1) | -0.153
3 | NHSL1 C268 (UniProt Q5SYE7) | 0.229
4 | NOL8 C517 (UniProt Q76FK4) | 0.153
5 | NFAT5 C566 (UniProt O94916) | 0.00326
6 | NCAPD3 C631 (UniProt P42695) | -0.156
7 | NCOA2 C22 (UniProt Q15596) | -0.0883
8 | NDUFS1 C75 (UniProt P28331) | 0.0435
9 | NOP56 C142 (UniProt O00567) | 0.0065
10 | NBN C323 (UniProt O60934) | -0.36
11 | NCKIPSD C376 (UniProt Q9NZQ3) | -0.239
12 | NKD2 C229 | 0.688
13 | NFATC2IP C232 (UniProt Q8NCF5) | -0.167
14 | NCOR1 C1274 (UniProt O75376) | 0.264
15 | NET1 C293 (UniProt Q7Z628) | -0.00324
16 | NDC1 C9 (UniProt Q9BTX1) | 0.0627
17 | NF1 C2808 (UniProt P21359) | -0.231
18 | NLE1 C280 (UniProt Q9NVX2) | -0.287
19 | NOL8 C578 (UniProt Q76FK4) | 0.116

Row | Target | log2 mean competition ratio
20 | NCAPG2 C401 (UniProt Q86XI2) | 0.138
21 | NOM1 C332 (UniProt Q5C9Z4) | 0.0137
22 | NCAPH2 C309 (UniProt Q6IBW4) | 0.0412
23 | NEMF C663 (UniProt O60524) | 0.214
24 | NCBP1 C409 (UniProt Q09161) | 0.023
25 | NF1 C509 (UniProt P21359) | -0.0958
26 | NOS1AP C168 (UniProt O75052) | -0.27
27 | NEK6 C264 (UniProt Q9HC98) | 0.00959
28 | NOL8 C1020 (UniProt Q76FK4) | -0.183
29 | NDUFA4 C44 (UniProt O00483) | -0.0642
30 | NLN C153 (UniProt Q9BYT8) | 0.0841
31 | NEK1 C1051 (UniProt Q96PY6) | 0.214
32 | NAV1 C337 (UniProt Q8NEY1) | 0.269
33 | NCBP1 C320 (UniProt Q09161) | -0.0127
34 | NCAPG C202 (UniProt Q9BPX3) | 0.189
35 | NCAPG2 C1047 (UniProt Q86XI2) | -0.279
36 | NCAPG C667 (UniProt Q9BPX3) | -0.212
37 | NDRG3 C375 (UniProt Q9UGV2) | 0.0666
38 | NOCT C302 (UniProt Q9UK39) | -0.0224

Some of the entries above in another layout.
NLN C153 (UniProt Q9BYT8)
  log2 mean competition ratio: 0.0841
NOCT C302 (UniProt Q9UK39)
  log2 mean competition ratio: -0.0224
